Laboratory results: article PMC10604066

T1: Thylakoid rhodanese-like protein (TROL) with HA and FLAG tags (TROL-HA-FLAG) (Arabidopsis thaliana) (UniProt Q9M158)
T1 sequence: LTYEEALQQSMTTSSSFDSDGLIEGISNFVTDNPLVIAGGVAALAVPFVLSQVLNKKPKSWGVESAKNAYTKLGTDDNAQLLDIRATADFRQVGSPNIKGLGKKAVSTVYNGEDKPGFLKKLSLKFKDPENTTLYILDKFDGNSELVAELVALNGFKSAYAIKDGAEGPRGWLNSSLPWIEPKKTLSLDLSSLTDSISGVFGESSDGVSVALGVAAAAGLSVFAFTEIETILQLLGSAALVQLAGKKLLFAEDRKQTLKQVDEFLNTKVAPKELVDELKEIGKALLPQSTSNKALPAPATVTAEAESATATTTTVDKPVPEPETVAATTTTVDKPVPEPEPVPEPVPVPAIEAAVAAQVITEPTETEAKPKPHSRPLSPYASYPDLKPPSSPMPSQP


Target: T1, Thylakoid rhodanese-like protein (TROL) with HA and FLAG tags (TROL-HA-FLAG) (Arabidopsis thaliana)
Assay: affinity purification with mass spectrometry; FLAG/HA tandem affinity purification of TROL-HA-FLAG from thylakoids of TROL OX Arabidopsis solubilised in 1% DDM; anti-FLAG resin overnight at 4 °C, RIPA wash, 3 × FLAG peptide elution, anti-HA resin 1.5 h at 4 °C, elution with 8 M urea and Laemmli buffer; GeLC-MS/MS; three independent trials, protein threshold 99.9%, peptide threshold 95%

binding	Binder
binds	PGR5-like protein 1A, chloroplastic (protein, UniProt Q8H112 61-324) ATTEQSGPVGGDNVDSNVLPYCSINKAEKKTIGEMEQEFLQALQSFYYDGKAIMSNEEFDNLKEELMWEGSSVVMLSSDEQRFLEASMAYVSGNPILNDEEYDKLKLKLKIDGSDIVSEGPRCSLRSKKVYSDLAVDYFKMLLLNVPATVVALGLFFFLDDITGFEITYIMELPEPYSFIFTWFAAVPVIVYLALSITKLIIKDFLILKGPCPNCGTENTSFFGTILSISSGGKTNTVKCTNCGTAMVYDSGSRLITLPEGSQA
binds	L-ascorbate peroxidase T, chloroplastic (enzyme, UniProt Q42593 79-426) AASDAAQLISAKEDIKVLLRTKFCHPILVRLGWHDAGTYNKNIEEWPLRGGANGSLRFEAELKHAANAGLLNALKLIQPLKDKYPNISYADLFQLASATAIEEAGGPDIPMKYGRVDVVAPEQCPEEGRLPDAGPPSPADHLRDVFYRMGLDDKEIVALSGAHTLGRARPDRSGWGKPETKYTKTGPGEAGGQSWTVKWLKFDNSYFKDIKEKRDDDLLVLPTDAALFEDPSFKNYAEKYAEDVAAFFKDYAEAHAKLSNLGAKFDPPEGIVIENVPEKFVAAKYSTGKKELSDSMKKKIRAEYEAIGGSPDKPLPTNYFLNIIIAIGVLVLLSTLFGGNNNSDFSGF
binds	Protein CURVATURE THYLAKOID 1A, chloroplastic (protein, UniProt O04616 63-164) ASSEETSSIDTNELITDLKEKWDGLENKSTVLIYGGGAIVAVWLSSIVVGAINSVPLLPKVMELVGLGYTGWFVYRYLLFKSSRKELAEDIESLKKKIAGSE

Results are given in words; binding and its absence hold for the method and conditions named. Binding seen in cells or lysates may run through a third protein. These calls come from enrichment with a bait or labelling near it, and not all partners need be listed. Sequences can lack the tags named with a protein.
